Data from article PMC9445010.
These are yes or no findings as the source states them, for the method shown. Some binding calls cover weakened binding; strength is not graded here.

B1: PmoA (protein, UniProt Q607G3 1-247)
chain: MSAAQSAVRSHAEAVQVSRTIDWMALFVVFFVIVGSYHIHAMLTMGDWDFWSDWKDRRLWVTVTPIVLVTFPAAVQSYLWERYRLPWGATVCVLGLLLGEWINRYFNFWGWTYFPINFVFPASLVPGAIILDTVLMLSGSYLFTAIVGAMGWGLIFYPGNWPIIAPLHVPVEYNGMLMSIADIQGYNYVRTGTPEYIRMVEKGTLRTFGKDVAPVSAFFSAFMSILIYFMWHFIGRWFSNERFLQST
B2: PmoB (protein, UniProt G1UBD1 33-414)
chain: HGEKSQAAFMRMRTIHWYDLSWSKEKVKINETVEIKGKFHVFEGWPETVDEPDVAFLNVGMPGPVFIRKESYIGGQLVPRSVRLEIGKTYDFRVVLKARRPGDWHVHTMMNVQGGGPIIGPGKWITVEGSMSEFRNPVTTLTGQTVDLENYNEGNTYFWHAFWFAIGVAWIGYWSRRPIFIPRLLMVDAGRADELVSATDRKVAMGFLAATILIVVMAMSSANSKYPITIPLQAGTMRGMKPLELPAPTVSVKVEDATYRVPGRAMRMKLTITNHGNSPIRLGEFYTASVRFLDSDVYKDTTGYPEDLLAEDGLSVSDNSPLAPGETRTVDVTASDAAWEVYRLSDIIYDPDSRFAGLLFFFDATGNRQVVQIDAPLIPSFM

Target: T1, PmoB (Methylococcus capsulatus (Bath) (endogenous in M. capsulatus (Bath))) (UniProt G1UBD1)
T1 sequence: B2 chain
Experiment: cryo-EM structure; cryoET with subtomogram averaging of isolated M. capsulatus (Bath) membranes, no detergent; 25 mM PIPES pH 7.3, 250 mM NaCl; single trimer 4.8 Å, 7-particle unit 10 Å, three trimers 12 Å; 3-fold symmetry applied

Binder	binding
B1	binds
B2	binds
